# Data published in the supplement of paper PMC12067093, “Discovery and optimisation of a covalent ligand for TRIM25 and its application to targeted protein ubiquitination” (Chemical Science, 2025).
# This is one part of the list.
# Compound: CC1Cc2ccccc2N1C(=O)C1CCCN(C1)C(=O)CCl (mixture of isomers) [TRIM25 ligand 11 (diastereomer mixture)]
# Assay: probe-labelled cysteine peptide fold change vs DMSO (competition) (log2 fold change); higher = less target engagement (more negative = stronger competition)
# Conditions: 10 µM; THP-1; incubation time: 4 h
# 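Further: competitive chemoproteomic profiling in live THP-1 cells with an iodoacetamide desthiobiotin (IA-DTB) probe, comparing probe-labelled peptide intensities in compound-treated cells against DMSO-treated controls.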
row,Target,probe-labelled cysteine peptide fold change
1,PTPRC_P08575_853_RVNAFSNFFSGPIVVHCSAGVGR (UniProt P08575),-0.0131
2,PTPRF_P10586_54_VPEDQTGLSGGVASFVCQATGEPKPR (UniProt P10586),-0.002
3,PSMA7_O14818_70_KICALDDNVCMAFAGLTADAR (UniProt O14818),-0.135
4,PSMD2_Q13200_779_GTLTLCPYHSDR (UniProt Q13200),0.0966
5,PSTPIP1_O43586_259_LTLEGCSIDADIDSFIQAK (UniProt O43586),0.0804
6,PSMA5_P28066_165_GPQLFHMDPSGTFVQCDAR (UniProt P28066),0.149
7,PTK2B_Q14289_972_LAQQNAVTSLSEECKR (UniProt Q14289),-0.0239
8,PSMC3_P17980_400_AVCVEAGMIALR (UniProt P17980),-0.07
9,PSME4_Q14997_820_DDILQSLTIVHNCLIGSGNLLPPLK (UniProt Q14997),0.059
10,PSMC2_P35998_236_TDACFIR (UniProt P35998),-0.118
11,PSD4_Q8NDX1_32_LPDHPQPMEILNLYLGDSLEPHPGECPR (UniProt Q8NDX1),0.0517
12,PSMB2_P49721_91_NLADCLR (UniProt P49721),-0.154
13,PTRH1_Q86Y79_179_VGIGRPAHPEAVQAHVLGCFSPAEQELLPLLLDR (UniProt Q86Y79),-0.0974
14,PSMD2_Q13200_616_VQQLLHICSEHFDSK (UniProt Q13200),0.236
15,PSMA1_P25786_92_QECLDSR (UniProt P25786),-0.0114
16,PSMD2_Q13200_139_RFAADIISVLAMTMSGERECLK (UniProt Q13200),-0.22
17,PSMA3_P25788_42_CKDGVVFGVEK (UniProt P25788),-0.482
18,PSMD1_Q99460_378_NSVCHTATVIANSFMHCGTTSDQFLRDNLEWLAR (UniProt Q99460),0.0156
19,PTCD2_Q8WV60_355_FDEIYGTLHITGQVTTDSLDAVLCHTPR (UniProt Q8WV60),0.058

row,Target,probe-labelled cysteine peptide fold change
1,PTPRC_P08575_1261_QDANCVNPLGAPEK (UniProt P08575),0.0558
2,PTPN7_P35236_204_CVHYWPTEEETYGPFQIR (UniProt P35236),-0.0461
3,PSMD6_Q15008_112_AEYLCR (UniProt Q15008),-0.0986
4,PTPRF_P10586_615_VMCVSMGSTTVR (UniProt P10586),-0.0441
5,PTPN7_P35236_228_ECPEYTVR (UniProt P35236),-0.0455
6,PTK2B_Q14289_744_LQFQVPEGLCASSPTLTSPMEYPSPVNSLHTPPLHR (UniProt Q14289),0.232
7,PSMD2_Q13200_459_NECDPALALLSDYVLHNSNTMR (UniProt Q13200),0.172
8,PSMG1_O95456_235_IPAILYLCYTDVMK (UniProt O95456),0.385
9,PTGES3_Q15185_75_SILCCLR (UniProt Q15185),0.0652
10,PTDSS1_P48651_419_TYSECEDGTYSPEISWHHR (UniProt P48651),0.519
11,PSME4_Q14997_798_LQHCGDGK (UniProt Q14997),0.126
12,PSIP1_O75475_204_QPCPSESDIITEEDK (UniProt O75475),-0.128
13,PTER_Q96BW5_289_LLVEEGCEDR (UniProt Q96BW5),0.0883
14,PTPRF_P10586_207_YECVATNSAGTR (UniProt P10586),0.266
15,PSME1_Q06323_22_VDVFREDLCTK (UniProt Q06323),-0.0529
16,PSMD14_O00487_120_QTGRPEMVVGWYHSHPGFGCWLSGVDINTQQSFEALSER (UniProt O00487),-0.0288
17,PTPN23_Q9H3S7_1466_HGVPPPCKPLASASISQK (UniProt Q9H3S7),-0.139
18,PTDSS1_P48651_347_QYYAYLTDTQCKR (UniProt P48651),-0.0444
19,PTPRC_P08575_610_SCNLDEQQELVERDDEK (UniProt P08575),-0.0215

# At a glance, part of the list above:
row,Target,probe-labelled cysteine peptide fold change
16,PSMD14_O00487_120_QTGRPEMVVGWYHSHPGFGCWLSGVDINTQQSFEALSER (UniProt O00487),-0.0288
17,PTPN23_Q9H3S7_1466_HGVPPPCKPLASASISQK (UniProt Q9H3S7),-0.139
18,PTDSS1_P48651_347_QYYAYLTDTQCKR (UniProt P48651),-0.0444
